Assay results from PMC12346480, “The Pharmacokinetic and Pharmacodynamic Relationship of Clinically Used Antiseizure Medications in the Maximal Electroshock Seizure Model in Rodents” (International Journal of Molecular Sciences, 2025).
Values joined by “and” are separate entries in the source; they are usually repeats but may differ in a detail not shown here. Identical values can stand only once.

Test system: MES-induced seizures
Format: in vivo
Conditions: mouse brain EC50 relative to rat

SMILES: NC(=O)O[C@@H](Cn1ncnn1)c1ccccc1Cl [CNB, cenobamate]
- Mouse/rat fold of brain EC50: 2 fold and 2.33 fold
